# Values from PubChem BioAssay AID1259254 (NCATS, 2017)
# Test: 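Finding genes that stop cells copying their DNA twice in one cycle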 (primary screen)
# Cell system: human HCT116 colorectal cancer cells
# Reagents: single siRNA against human genes
# Time to read-out: 3 days
# Read-out: 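Imaged Hoechst DNA stain sorts each cell into a cycle phase by DNA amount; per plate, G2 fraction set to 0% for non-targeting and 100% for GMNN siRNA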
# Reading the numbers: G2 robust z-score: higher = more G2 cells, more excess DNA replication
# Hit rule: 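Active siRNAs have a G2 robust z of 5 or more median absolute deviations over the median, which in these data means about 38% or higher of GMNN control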
# Shown is an unselected part of about 59,000 deposited reagents. About 1,550 of them (2.6%) count as active. 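G2 share is only a proxy for re-replication; each gene was hit by three separate siRNAs, and active genes were retested.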 Entries without a mark were called inactive. Reagents against one gene are numbered here. Further read-outs or replicates are left out here. Not stated in the record: the amount of reagent.
Target gene,siRNA no.,G2 robust z-score
OR2J2,1,4.8
OR2J2,2,-0.264
OR2J2,3,-0.352
GPR63,1,-0.669
GPR63,2,-0.0221
GPR63,3,-0.527
ZSCAN25,1,-0.813
ZSCAN25,2,-1.25
ZSCAN25,3,1.98
QPCT,1,3.47
QPCT,2,0.496
QPCT,3,0.229
NUDT10,1,1.45
NUDT10,2,-0.543
NUDT10,3,0.57
FMN1,1,-0.489
FMN1,2,0.149
FMN1,3,-0.535
FMN1,4,-0.186
FMN1,5,-0.49
FMN1,6,0.623
C6orf89,1,1.18
C6orf89,2,1.26
C6orf89,3,-0.591
LTBR,1,1.07
LTBR,2,-0.771
LTBR,3,-0.901
CDKN2D,1,-0.932
CDKN2D,2,3.66
CDKN2D,3,-1.14
C2CD5,1,-1.69
C2CD5,2,-0.548
C2CD5,3,-0.284

4 entries from above, set out differently:
{"Target gene": "OR2J2", "siRNA no.": 1, "G2 robust z-score": 4.8}
{"Target gene": "OR2J2", "siRNA no.": 2, "G2 robust z-score": -0.264}
{"Target gene": "OR2J2", "siRNA no.": 3, "G2 robust z-score": -0.352}
{"Target gene": "GPR63", "siRNA no.": 1, "G2 robust z-score": -0.669}

The results go on.
Target gene,siRNA no.,G2 robust z-score
CALHM6,1,2.22
CALHM6,2,-0.116
CALHM6,3,1.7
KIR2DL5B,1,0.0596
KIR2DL5B,2,-0.456
KIR2DL5B,3,2.6
NUP133,1,0.242
NUP133,2,-0.195
NUP133,3,0.641
DHRS11,1,1.33
DHRS11,2,1.54
DHRS11,3,-0.556
ENDOV,1,-0.208
ENDOV,2,0.498
ENDOV,3,4.38
CD109,1,-0.949
CD109,2,0.197
CD109,3,-0.297
BTN2A1,1,-0.167
BTN2A1,2,0.0189
BTN2A1,3,2.05
PDZD2,1,-0.325
PDZD2,2,0.479
PDZD2,3,3.03
TACC3,1,1.67
TACC3,2,-0.314
TACC3,3,3.17
P2RY11,1,-0.0219
P2RY11,2,-0.767
P2RY11,3,-0.096
FASTKD5,1,3
FASTKD5,2,1.48
FASTKD5,3,0.329
CELF2,1,-0.93
CELF2,2,0.0132
CELF2,3,1.56
